Laboratory results from patent US4476133A, “Triazolo-4,1-benzoxazepines having CNS activity” (Shionogi & Co., Ltd., priority 1980, dated 1984).

Test: acute toxicity
Settings: mouse, in vivo; oral; DS infant male mice, 20 to 23 g; observed 72 hours; Bliss method
Experimental: Test compounds were orally administered to DS infant male mice with four toxic doses. For each dose 10 mice were used, their body weights ranging from 20 to 23 grams. […] Mortality was calculated by the Bliss method [Bliss: Ann. Appln. Biol., 23, 134-307 (1935); Quant. J. Pharmacol., 11, 192 (1938)].

Compound: CN1C(=O)CN=C(c2ccccc2)c2cc(Cl)ccc21 [Diazepam, reference compound]
- LD50 at 72 h: > 1000 mg/kg
